The results in this text go back to patent publication US20140370521A1, “IDENTIFICATION OF TWO NOVEL BIOMARKERS FOR NIEMANN-PICK DISEASE TYPE C” (The USA , as Represented by the Secretary, Department of …, priority 2011, published 2014).

What was measured is the transcript of the gene that encodes the chain shown.

B1: Gdf15 (protein, UniProt Q9Z0J7 189-303, looked up)
Growth/differentiation factor …: SAHAHPRDSCPLGPGRCCHLETVQATLEDLGWSDWVLSPRQLQLSMCVGECPHLYRSANTHAQIKARLHGLQPDKVPAPCCVPSSYTPVVLMHRTDSGVSLQTYDDLVARGCHCA
B2: Lect2 (protein, UniProt O88803 19-151, looked up)
Leukocyte cell-derived …: GPWANICASKSSNEIRTCDSYGCGQYSAQRTQRHHPGVDVLCSDGSVVYAPFTGKIVGQEKPYRNKNAINDGIRLSGRGFCVKIFYIKPIKYKGSIKKGEKLGTLLPLQKIYPGIQSHVHVENCDSSDPTAYL
B3: Loxl2 (protein, UniProt P58022 26-776, looked up)
Lysyl oxidase homolog 2: QYEGWPYQLQYPEYFQQPAPEHHQRQVPSDVVKIQVRLAGQKRKHNEGRVEVYYEGQWGTVCDDDFSIHAAHVVCRQVGYVEAKSWAASSSYGPGEGPIWLDNIYCTGKESTLASCSSNGWGVTDCKHTEDVGVVCSEKRIPGFKFDNSLINQIESLNIQVEDIRIRPILSAFRHRKPVTEGYVEVKEGKAWKQICNKHWTAKNSHVVCGMFGFPAEKTYNPKAYKTFASRRKLRYWKFSMNCTGTEAHISSCKLGPSVTRDPVKNATCENGQPAVVSCVPSQIFSPDGPSRFRKAYKPEQPLVRLRGGAQVGEGRVEVLKNGEWGTICDDKWDLVSASVVCRELGFGTAKEAITGSRLGQGIGPIHLNEVQCTGTEKSIIDCKFNTESQGCNHEEDAGVRCNIPIMGFQKKVRLNGGRNPYEGRVEVLTERNGSLVWGTVCGQNWGIVEAMVVCRQLGLGFASNAFQETWYWHGNIFANNVVMSGVKCSGTELSLAHCRHDEEVACPEGGVRFGAGVACSETAPDLVLNAEIVQQTAYLEDRPMSLLQCAMEENCLSASAVHTDPTRGHRRLLRFSSQIHNNGQSDFRPKNGRHAWIWHDCHRHYHSMEVFTYYDLLSLNGTKVAEGHKASFCLEDTECEGDIQKSYECANFGEQGITMGCWDMYRHDIDCQWIDITDVPPGDYLFQVVINPNYEVPESDFSNNIMKCRSRYDGYRIWMYNCHVGGAFSEETEQKFEHFSGLLNNQLSVQ
B4: Cxcl10 (protein, UniProt P17515 22-98, looked up)
C-X-C motif chemokine 10: IPLARTVRCNCIHIDDGPVRMRAIGKLEIIPASLSCPRVEIIATMKKNDEQRCLNPESKTIKNLMKAFSQKRSKRAP
B5: Hyal1 (protein, UniProt Q91ZJ9 53-462, looked up)
Hyaluronidase-1: SVVSNRPFITVWNGDTHWCLTEYGVDVDVSVFDVVANKEQSFQGSNMTIFYREELGTYPYYTPTGEPVFGGLPQNASLVTHLAHTFQDIKAAMPEPDFSGLAVIDWEAWRPRWAFNWDSKDIYRQRSMELVQAEHPDWPETLVEAAAKNQFQEAAEAWMAGTLQLGQVLRPRGLWGYYGFPDCYNNDFLSLNYTGQCPVFVRDQNDQLGWLWNQSYALYPSIYLPAALMGTEKSQMYVRHRVQEALRVAIVSRDPHVPVMPYVQIFYEMTDYLLPLEELEHSLGESAAQGVAGAVLWLSSDKTSTKESCQAIKAYMDSTLGPFIVNVTSAALLCSEALCSGHGRCVRHPSYPEALLTLNPASFSIELTHDGRPPSLKGTLSLKDRAQMAMKFRCRCYRGWRGKWCDKRGM
B6: Csf3r (protein, UniProt P40223 26-837, looked up)
Granulocyte …: CGHIEISPPVVRLGDPVLASCTISPNCSKLDQQAKILWRLQDEPIQPGDRQHHLPDGTQESLITLPHLNYTQAFLFCLVPWEDSVQLLDQAELHAGYPPASPSNLSCLMHLTTNSLVCQWEPGPETHLPTSFILKSFRSRADCQYQGDTIPDCVAKKRQNNCSIPRKNLLLYQYMAIWVQAENMLGSSESPKLCLDPMDVVKLEPPMLQALDIGPDVVSHQPGCLWLSWKPWKPSEYMEQECELRYQPQLKGANWTLVFHLPSSKDQFELCGLHQAPVYTLQMRCIRSSLPGFWSPWSPGLQLRPTMKAPTIRLDTWCQKKQLDPGTVSVQLFWKPTPLQEDSGQIQGYLLSWSSPDHQGQDIHLCNTTQLSCIFLLPSEAQNVTLVAYNKAGTSSPTTVVFLENEGPAVTGLHAMAQDLNTIWVDWEAPSLLPQGYLIEWEMSSPSYNNSYKSWMIEPNGNITGILLKDNINPFQLYRITVAPLYPGIVGPPVNVYTFAGERAPPHAPALHLKHVGTTWAQLEWVPEAPRLGMIPLTHYTIFWADAGDHSFSVTLNISLHDFVLKHLEPASLYHVYLMATSRAGSTNSTGLTLRTLDPSDLNIFLGILCLVLLSTTCVVTWLCCKRRGKTSFWSDVPDPAHSSLSSWLPTIMTEETFQLPSFWDSSVPSITKITELEEDKKPTHWDSESSGNGSLPALVQAYVLQGDPREISNQSQPPSRTGDQVLYGQVLESPTSPGVMQYIRSDSTQPLLGGPTPSPKSYENIWFHSRPQETFVPQPPNQEDDCVFGPPFDFPLFQGLQVHGVEEQGGF
B7: Cxcl16 (protein, UniProt Q8BSU2 27-246, looked up)
C-X-C motif chemokine 16: NQGSVAGSCSCDRTISSGTQIPQGTLDHIRKYLKAFHRCPFFIRFQLQSKSVCGGSQDQWVRELVDCFERKECGTGHGKSFHHQKHLPQASTQTPEAAEGTPSDTSTPAHSQSTQHSTLPSGALSLNKEHTQPWEMTTLPSGYGLEARPEAEANEKQQDDRQQEAPGAGASTPAWVPVLSLLAIVFFLTAAMAYVLCNRRATQQNSAGLQLWYTPVEPRP
B8: Lcn2 (protein, UniProt P11672 21-200, looked up)
Neutrophil …: QDSTQNLIPAPSLLTVPLQPDFRSDQFRGRWYVVGLAGNAVQKKTEGSFTMYSTIYELQENNSYNVTSILVRDQDQGCRYWIRTFVPSSRAGQFTLGNMHRYPQVQSYNVQVATTDYNQFAMVFFRKTSENKQYFKITLYGRTKELSPELKERFTRFAKSLGLKDDNIIFSVPTDQCIDN
B9: Lpl (protein, UniProt P11152 28-474, looked up)
Lipoprotein lipase: ADAGRDFSDIESKFALRTPEDTAEDTCHLIPGLADSVSNCHFNHSSKTFVVIHGWTVTGMYESWVPKLVAALYKREPDSNVIVVDWLYRAQQHYPVSAGYTKLVGNDVARFINWMEEEFNYPLDNVHLLGYSLGAHAAGVAGSLTNKKVNRITGLDPAGPNFEYAEAPSRLSPDDADFVDVLHTFTRGSPGRSIGIQKPVGHVDIYPNGGTFQPGCNIGEAIRVIAERGLGDVDQLVKCSHERSIHLFIDSLLNEENPSKAYRCNSKEAFEKGLCLSCRKNRCNNLGYEINKVRAKRSSKMYLKTRSQMPYKVFHYQVKIHFSGTEDGKQHNQAFEISLYGTVAESENIPFTLPEVSTNKTYSFLIYTEVDIGELLMMKLKWISDSYFSWPDWWSSPSFVIERIRVKAGETQKKVIFCAREKVSHLQKGKDSAVFVKCHDKSLKKSG
B10: Dcn (protein, UniProt P28654 31-354, looked up)
Decorin: DEASGIIPYDPDNPLISMCPYRCQCHLRVVQCSDLGLDKVPWDFPPDTTLLDLQNNKITEIKEGAFKNLKDLHTLILVNNKISKISPEAFKPLVKLERLYLSKNQLKELPEKMPRTLQELRVHENEITKLRKSDFNGLNNVLVIELGGNPLKNSGIENGAFQGLKSLSYIRISDTNITAIPQGLPTSLTEVHLDGNKITKVDAPSLKGLINLSKLGLSFNSITVMENGSLANVPHLRELHLDNNKLLRVPAGLAQHKYIQVVYLHNNNISAVGQNDFCRAGHPSRKASYSAVSLYGNPVRYWEIFPNTFRCVYVRSAIQLGNYK

For the first data set, the system named is Npc1-/- mouse liver. The data set is described as follows: Liver gene expression microarray, Npc1-/- versus control mice (Affymetrix Mouse GeneChip 1.0 ST). As to conditions: 1 week of age, negative = lower in Npc1−/−.
As to B1, the “FC (fold-change of expression between Npc1−/− and control mice)” value came to 1.47.

On to B2, for which the “FC (fold-change of expression between Npc1−/− and control mice)” value is −1.36.

B3: the “FC (fold-change of expression between Npc1−/− and control mice)” value stood at 1.39.

The same data set, now with this note: 3 weeks of age, negative = lower in Npc1−/−.
As for B4, the “FC (fold-change of expression between Npc1−/− and control mice)” value came to 2.57.

Turning to B5, the “FC (fold-change of expression between Npc1−/− and control mice)” value is on record as −1.86.

The same data set, now with this note: 5 weeks of age, negative = lower in Npc1−/−.
Turning to B1, the “FC (fold-change of expression between Npc1−/− and control mice)” value was determined as 1.48.

In the case of B6, the “FC (fold-change of expression between Npc1−/− and control mice)” value is 1.33.

B4: the “FC (fold-change of expression between Npc1−/− and control mice)” value amounted to 2.31.

On to B5, for which the “FC (fold-change of expression between Npc1−/− and control mice)” value is recorded as −1.87.

On to B7, for which the “FC (fold-change of expression between Npc1−/− and control mice)” value is reported as 1.52.

On to B8, for which the “FC (fold-change of expression between Npc1−/− and control mice)” value came out at 1.93.

For B9, the “FC (fold-change of expression between Npc1−/− and control mice)” value is on record as 4.66.

For the molecule B10, the “FC (fold-change of expression between Npc1−/− and control mice)” value was determined as 1.34.

Take B3: the “FC (fold-change of expression between Npc1−/− and control mice)” value came out at 1.30.

Staying with this data set, now noted: 7 weeks of age, negative = lower in Npc1−/−.
Consider B6, for which the “FC (fold-change of expression between Npc1−/− and control mice)” value came to 1.85.

Regarding B4, the “FC (fold-change of expression between Npc1−/− and control mice)” value stood at 2.37.

For the molecule B2, the “FC (fold-change of expression between Npc1−/− and control mice)” value is reported as −1.47.

In the case of B5, the “FC (fold-change of expression between Npc1−/− and control mice)” value is −1.35.

As for B7, the “FC (fold-change of expression between Npc1−/− and control mice)” value was found to be 1.84.

Turning to B8, the “FC (fold-change of expression between Npc1−/− and control mice)” value is on record as 3.52.

For the molecule B9, the “FC (fold-change of expression between Npc1−/− and control mice)” value stood at 9.91.

For B10, the “FC (fold-change of expression between Npc1−/− and control mice)” value was determined as 1.39.

With B3, the “FC (fold-change of expression between Npc1−/− and control mice)” value is given as 1.39.

The data set is the same for the next values; noted with them: 11 weeks of age, negative = lower in Npc1−/−.
For B1, the “FC (fold-change of expression between Npc1−/− and control mice)” value was determined as 1.38.

Take B6: the “FC (fold-change of expression between Npc1−/− and control mice)” value was 1.88.

In the case of B2, the “FC (fold-change of expression between Npc1−/− and control mice)” value was −2.18.

Turning to B7, the “FC (fold-change of expression between Npc1−/− and control mice)” value was found to be 2.09.

B8: the “FC (fold-change of expression between Npc1−/− and control mice)” value is recorded as 5.25.

As for B9, the “FC (fold-change of expression between Npc1−/− and control mice)” value amounted to 15.62.

On to B10, for which the “FC (fold-change of expression between Npc1−/− and control mice)” value is listed as 1.94.

B3: the “FC (fold-change of expression between Npc1−/− and control mice)” value was 1.32.

Still in this data set, the particulars now being: head prints "weeks" (column between 7 weeks and 11 weeks), negative = lower in Npc1−/−.
For the molecule B1, the “FC (fold-change of expression between Npc1−/− and control mice)” value is 1.65.

Take B6: the “FC (fold-change of expression between Npc1−/− and control mice)” value was determined as 2.02.

In the case of B4, the “FC (fold-change of expression between Npc1−/− and control mice)” value stood at 2.09.

Regarding B2, the “FC (fold-change of expression between Npc1−/− and control mice)” value is reported as −1.35.

With B5, the “FC (fold-change of expression between Npc1−/− and control mice)” value was −1.45.

On to B7, for which the “FC (fold-change of expression between Npc1−/− and control mice)” value is 2.50.

B8: the “FC (fold-change of expression between Npc1−/− and control mice)” value stood at 4.46.

For the molecule B9, the “FC (fold-change of expression between Npc1−/− and control mice)” value amounted to 13.13.

As to B10, the “FC (fold-change of expression between Npc1−/− and control mice)” value was 1.70.
